Measurements taken from publication PMC8325119, “A Novel Class of Functionalized Synthetic Fluoroquinolones with Dual Antiproliferative - Antimicrobial Capacities” (Asian Pacific Journal of Cancer Prevention : APJCP, 2021).
≈ marks a conversion by molar mass, not a printed value.

Tested on: Escherichia coli (E. coli) ATCC 25922
Assay: Quantitative antimicrobial assessment (MIC) against E. coli
Format: cell-based
Conditions: ATCC25922, Gram negative

O=C(O)c1cn(C2CC2)c2cc(N3CCNCC3)c(F)cc2c1=O [ciprofloxacin, reference compound]
MIC: 0.0278 µM (≈ 9.21 ng/mL)
